Source: PubChem BioAssay AID1259254 (NCATS, 2017)
Assay: 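Gene knock-downs that lead to re-replication, shown by excess G2 DNA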 (primary screen). Cells: human HCT116 colorectal cancer cells. Reagents: single siRNA against human genes. Duration: 3 days. Measured: 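Imaged Hoechst DNA stain sorts each cell into a cycle phase by DNA amount; per plate, G2 fraction set to 0% for non-targeting and 100% for GMNN siRNA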. Scale: G2 robust z-score and G2 cells, % of GMNN control: higher = more G2 cells, more excess DNA replication. Rule for the call: 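Active siRNAs have a G2 robust z of 5 or more median absolute deviations over the median, which in these data means about 38% or higher of GMNN control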.
Here is an unselected part of about 59,000 deposited reagents. In the full data, about 1,550 (2.6%) got an active call. 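G2 share is only a proxy for re-replication; each gene was hit by three separate siRNAs, and active genes were retested.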 Unmarked entries are inactive. The numbers tell different reagents against one gene apart. Further read-outs or replicates are left out here. No sequences are given here. Not given: the amount of reagent.

target	siRNA no.	G2 robust z-score	G2 cells, % of GMNN control
MAPK11 (mitogen-activated protein kinase 11)	1	1.79	15.6
MAPK11 (mitogen-activated protein kinase 11)	2	-1.19	-5.43
MAPK11 (mitogen-activated protein kinase 11)	3	-0.761	-2.39
RGS14 (regulator of G protein signaling 14)	1	1.1	10.7
RGS14 (regulator of G protein signaling 14)	2	-0.82	-2.8
RGS14 (regulator of G protein signaling 14)	3	-0.816	-2.77
PVRIG (PVR related immunoglobulin domain containing)	1	0.496	6.46
PVRIG (PVR related immunoglobulin domain containing)	2	0.0811	3.54
PVRIG (PVR related immunoglobulin domain containing)	3	1.04	10.3
FGF2 (fibroblast growth factor 2)	1	0.219	4.51
FGF2 (fibroblast growth factor 2)	2	-1.02	-4.2
FGF2 (fibroblast growth factor 2)	3	8.19 (active)	60.6
KRTAP19-6 (keratin associated protein 19-6)	1	0.248	4.71
KRTAP19-6 (keratin associated protein 19-6)	2	0.871	9.1
KRTAP19-6 (keratin associated protein 19-6)	3	-0.638	-1.52
POU5F2 (POU domain class 5, transcription factor 2)	1	-0.635	-1.5
POU5F2 (POU domain class 5, transcription factor 2)	2	-0.411	0.0762
POU5F2 (POU domain class 5, transcription factor 2)	3	-0.353	0.485
ANGPTL8 (angiopoietin like 8)	1	-1.01	-4.16
ANGPTL8 (angiopoietin like 8)	2	0.743	8.2
ANGPTL8 (angiopoietin like 8)	3	0.0172	3.09
GSC (goosecoid homeobox)	1	-0.251	1.2
GSC (goosecoid homeobox)	2	7.94 (active)	58.9
GSC (goosecoid homeobox)	3	-0.292	0.909
PLA2G12A (phospholipase A2 group XIIA)	1	-0.349	0.509
PLA2G12A (phospholipase A2 group XIIA)	2	-0.787	-2.57
PLA2G12A (phospholipase A2 group XIIA)	3	-1.22	-5.62
CROT (carnitine O-octanoyltransferase)	1	-1.39	-6.83
CROT (carnitine O-octanoyltransferase)	2	-0.889	-3.29
CROT (carnitine O-octanoyltransferase)	3	-1.15	-5.13
